Non-standard residues stand in square brackets, D forms with d. Residues, ends and D or L forms follow the SMILES beside them. *: point of attachment. X2 = CN(C)c1ccc2c(-c3cc(C(=O)*)ccc3C(=O)[O-])c3ccc(=[N+](C)C)cc-3oc2c1; X3 = CCN=c1cc2oc3cc(NCC)c(C)cc3c(-c3cc(C(=O)*)ccc3C(=O)O)c-2cc1C; X1 = CN(C)c1ccc2c(c1)Oc1cc(N(C)C)ccc1C21OC(=O)c2ccc(C(=O)*)cc21; 5FAM = O=C1OC2(c3ccc(O)cc3Oc3cc(O)ccc32)c2ccc(C(=O)*)cc21; Nle = CCCC[C@H](N)C(=O)O
Test: Percent fluorescence quenching, intact vs enzyme digested labeled peptide
Details: for % Q − (1 − (Io/Ic)) × 100: Io intact labeled peptide, Ic enzyme digested labeled peptide; for degree of quenching: intact peptide relative to cleaved solution

| SMILES | % Q − (1 − (Io/Ic)) × 100 [%] | degree of quenching [%] |
| --- | --- | --- |
| CCCC[C@H](NC(=O)[C@@H]1CCCN1C(=O)[C@@H](NC(=O)[C@H](C)NC(=O)[C@H](CC(=O)O)NC(=O)[C@@H](N)CCCCNC(=O)c1ccc2c(c1)C1(OC2=O)c2ccc(N(C)C)cc2Oc2cc(N(C)C)ccc21)[C@@H](C)CC)C(=O)N[C@@H](CO)C(=O)N[C@H](C(=O)N1CCC[C@H]1C(=O)N[C@@H](CCCCNC(=O)c1ccc2c(c1)C1(OC2=O)c2ccc(N(C)C)cc2Oc2cc(N(C)C)ccc21)C(=O)NCC(=O)N[C@@H](Cc1ccc(O)cc1)C(=O)O)[C@@H](C)CC [6-TMR-K-NorFes-6-TMR] (H-K(X1)DAIP[Nle]SIPK(X1)GY-OH; N-terminus and C-terminus assumed) | 92 |  |
| CCCC[C@H](NC(=O)[C@@H]1CCCN1C(=O)[C@@H](NC(=O)[C@H](C)NC(=O)[C@H](CC(=O)O)NC(=O)[C@@H](N)CCCCNC(=O)c1ccc(C(=O)[O-])c(-c2c3ccc(=[N+](C)C)cc-3oc3cc(N(C)C)ccc23)c1)[C@@H](C)CC)C(=O)N[C@@H](CO)C(=O)N[C@H](C(=O)N1CCC[C@H]1C(=O)N[C@@H](CCCCNC(=O)c1ccc(C(=O)O)c(-c2c3cc(C)c(=NCC)cc-3oc3cc(NCC)c(C)cc23)c1)C(=O)NCC(=O)N[C@@H](Cc1ccc(O)cc1)C(=O)O)[C@@H](C)CC [6-TMR-K-NorFes-DER] (H-K(X2)DAIP[Nle]SIPK(X3)GY-OH; N-terminus and C-terminus assumed) | 97 |  |
| CCCC[C@H](NC(=O)[C@@H]1CCCN1C(=O)[C@@H](NC(=O)[C@H](C)NC(=O)[C@H](CC(=O)O)NC(=O)c1ccc2c(c1)C1(OC2=O)c2ccc(N(C)C)cc2Oc2cc(N(C)C)ccc21)[C@@H](C)CC)C(=O)N[C@@H](CO)C(=O)N[C@H](C(=O)N1CCC[C@H]1C(=O)N[C@@H](CCCCNC(=O)c1ccc2c(c1)C1(OC2=O)c2ccc(N(C)C)cc2Oc2cc(N(C)C)ccc21)C(=O)NCC(=O)N[C@@H](Cc1ccc(O)cc1)C(=O)O)[C@@H](C)CC [6-TMR-NorFes-6-TMR] (X1-DAIP[Nle]SIPK(X1)GY-OH; C-terminus assumed) | 90 | 90 |
| CCCC[C@H](NC(=O)[C@@H]1CCCN1C(=O)[C@@H](NC(=O)[C@H](C)NC(=O)[C@H](CC(=O)O)NC(=O)c1ccc(C(=O)[O-])c(-c2c3ccc(=[N+](C)C)cc-3oc3cc(N(C)C)ccc23)c1)[C@@H](C)CC)C(=O)N[C@@H](CO)C(=O)N[C@H](C(=O)N1CCC[C@H]1C(=O)N[C@@H](CCCCNC(=O)c1ccc(C(=O)O)c(-c2c3cc(C)c(=NCC)cc-3oc3cc(NCC)c(C)cc23)c1)C(=O)NCC(=O)N[C@@H](Cc1ccc(O)cc1)C(=O)O)[C@@H](C)CC [6-TMR-NorFes-DER] (X2-DAIP[Nle]SIPK(X3)GY-OH; C-terminus assumed) | 94 | 94 |
| CCCC[C@H](NC(=O)[C@@H]1CCCN1C(=O)[C@@H](NC(=O)[C@H](C)NC(=O)[C@H](CC(=O)O)NC(=O)c1ccc2c(c1)C(=O)OC21c2ccc(O)cc2Oc2cc(O)ccc21)[C@@H](C)CC)C(=O)N[C@@H](CO)C(=O)N[C@H](C(=O)N1CCC[C@H]1C(=O)N[C@@H](CCCCNC(=O)c1ccc2c(c1)C(=O)OC21c2ccc(O)cc2Oc2cc(O)ccc21)C(=O)NCC(=O)N[C@@H](Cc1ccc(O)cc1)C(=O)O)[C@@H](C)CC [Compound F1-NorFes-F1] (5FAM-DAIP[Nle]SIPK(5FAM)GY-OH; C-terminus assumed) | 55 | 55 |
| CCCC[C@H](NC(=O)[C@@H]1CCCN1C(=O)[C@@H](NC(=O)[C@H](C)NC(=O)[C@H](CC(=O)O)NC(=O)c1ccc(C(=O)O)c(-c2c3cc(C)c(=NCC)cc-3oc3cc(NCC)c(C)cc23)c1)[C@@H](C)CC)C(=O)N[C@@H](CO)C(=O)N[C@H](C(=O)N1CCC[C@H]1C(=O)N[C@@H](CCCCNC(=O)c1ccc(C(=O)O)c(-c2c3cc(C)c(=NCC)cc-3oc3cc(NCC)c(C)cc23)c1)C(=O)NCC(=O)N[C@@H](Cc1ccc(O)cc1)C(=O)O)[C@@H](C)CC [DER-NorFes-DER] (X3-DAIP[Nle]SIPK(X3)GY-OH; C-terminus assumed) | 90 |  |

From patent US7312302B2, “Compositions for the detection of enzyme activity in biological samples and methods of use thereof” (Oncolmmunin, Inc., priority 1997, dated 2007)
